PubChem BioAssay AID504744, Drosophila RNAi Screening Center, 2011
In all, the deposit lists about 23,000 reagents; below is a random part of those that have a named target and a result. Of all reagents, 98 (0.43%) are marked active. 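Only hit calls are given; the phospho-dAkt signals, z-scores and hit direction were not deposited.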 Names joined by + are all predicted targets of the reagent.

Purpose: 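Find genes whose loss alters insulin-driven dAkt phosphorylation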 (primary screen)
System: Drosophila Kc167 cells
Reagent: long dsRNA against Drosophila genes, 250 ng dsRNA per well of a 384-well plate
Time to read-out: 3 days of knock-down, then overnight serum-free starvation before stimulation
Challenge: bovine insulin at 387 nM for 10 minutes after 12 h without serum
Read-out: 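In-cell antibody fluorescence for phospho-dAkt in each well over DNA-dye signal, with log2 residuals expressed as z-scores adjusted for cell count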
Hit rule: 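Hit in the insulin screen when the two-replicate mean z-score is more extreme than plus or minus 2.5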

Silencing of mRpS17 (GeneID 37872) [DRSC04463] resulted in: inactive. Silencing of CG14868 (GeneID 41875) [DRSC14991] resulted in: inactive. With knock-down of qvr (GeneID 2768718) [DRSC05280], the record shows inactive. After knock-down of CG14650 (GeneID 40566) [DRSC12236] the results were inactive. Depletion of Ggamma30A (GeneID 45234) [DRSC02715] gave: inactive. Against Ggamma30A (GeneID 45234) [DRSC03331] the deposit lists inactive.

With knock-down of Psf1 (GeneID 38136) [DRSC08638], the record shows inactive. After knock-down of CG13579 (GeneID 37905) [DRSC04215] the results were inactive. Silencing of CG9072 (GeneID 32443) [DRSC20147] resulted in: inactive. Against CG11858 (GeneID 43044) [DRSC14412], the values are inactive. After knock-down of RpL3 + CG6693 [DRSC16097], the record shows inactive. peng (GeneID 33112) [DRSC20583] gave inactive.

Silencing of CG17819 (GeneID 42579) [DRSC15279] gave: inactive. After knock-down of CG14421 (GeneID 31285) [DRSC17918], the record shows inactive. CG4968 (GeneID 34384) [DRSC02794] showed inactive. With knock-down of MED17 (GeneID 42175) [DRSC16889], the record shows inactive. For TBC1D5 (GeneID 41628) [DRSC16421], the entry reads inactive. cv (GeneID 44510) [DRSC17833] showed inactive.

With knock-down of CecA2 (GeneID 43597) [DRSC16604], the record shows inactive. Against CG6972 (GeneID 42684) [DRSC16159], the values are inactive. CG6638 (GeneID 38979) [DRSC10680] gave inactive. After knock-down of CG31337 (GeneID 318688) [DRSC12981] the results were inactive. With knock-down of tctn + B9d2 [DRSC03160], the screen gave inactive.

Records above whose gene name starts with M or m:
mRpS17 (GeneID 37872) [DRSC04463] — call: inactive
MED17 (GeneID 42175) [DRSC16889] — call: inactive
